At least one compound was matched to its structure with a doubt left.
Test system: MSRA
Test: MIC against MSRA (30 species)
Type: cell-based
Set-up: unit not given beside the values

Structure (SMILES) | MIC Range
COc1c(N2C[C@@H]3CCCN[C@@H]3C2)c(F)cc2c(=O)c(C(=O)O)cn(C3CC3)c12 [Moxifloxacin, reference compound] | 0.06->8
CC[C@H]1OC(=O)[C@@](C)(F)C(=O)[C@H](C)[C@@H](O[C@@H]2O[C@H](C)C[C@H](N(C)C)[C@H]2O)[C@](C)(OC)C[C@@H](C)C(=O)[C@H](C)[C@H]2N(CCCCn3cc(-c4cccc(N)c4)nn3)C(=O)O[C@]12C [Solithromycin, solithromycin] | 0.008->64

Reference: patent US20210137961A1, “Compositions and Methods for Treating Dry Eye Diseases” (priority 2017, published 2021)
